Experimental data: PubChem BioAssay AID1508597 (Cure First, 2020)
This is a random part of the about 2,100 reagents, under one of the conditions tested. 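Calls flag viability under 80% in either arm, not effects specific to rucaparib; the reference for percent is not stated.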 A reagent listed more than once was tested more than once; the source does not tell the runs apart. Not given: the 100% reference.

Assay: 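Genes whose silencing sensitises or protects ovarian cancer cells against rucaparib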 (primary screen)
Cells: human ovarian carcinoma lines grown from tumours: OCI-P5x (papillary serous) and OCI-C5x (clear cell)
Knock-down reagent: siRNA pool against human genes, 1.25 pmol siRNA per well
Time to read-out: 72 h or 96 h, depending on the cell culture
Treatment: rucaparib 20 µM (about IC30) or vehicle, present until read-out
Rucaparib or vehicle: Rucaparib
Cell line: OCI-P5x (serous)
Read-out: 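Luminescent ATP-based viability assay read 72 or 96 h after transfection, depending on culture, given as normalised percent viability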
Scale: viability, normalised: higher = more viable cells remaining
Hit rule: 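Active when normalised viability falls below 80 percent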
Calls: active = viability under 80%; inactive = viability 80% or more

gene | technical replicate | viability, normalised (%) | outcome
OGG1 | 1 | 97.6 | inactive
OGG1 | 2 | 85.6 | inactive
OGG1 | 3 | 68.9 | active
RAB32 | 1 | 122 | inactive
RAB32 | 2 | 101 | inactive
RAB32 | 3 | 89.5 | inactive
PRMT9 | 1 | 32.1 | active
PRMT9 | 2 | 34 | active
PRMT9 | 3 | 35.9 | active
PFKL | 1 | 89.8 | inactive
PFKL | 2 | 122 | inactive
PFKL | 3 | 102 | inactive
TBL1X | 1 | 71.4 | active
TBL1X | 2 | 70.7 | active
TBL1X | 3 | 82.4 | inactive
GUCY2F | 1 | 94 | inactive
GUCY2F | 2 | 89.4 | inactive
GUCY2F | 3 | 93.3 | inactive
DPH5 | 1 | 42.2 | active
DPH5 | 2 | 39.9 | active
DPH5 | 3 | 42 | active
PKN1 | 1 | 43.8 | active
PKN1 | 1 | 87.8 | inactive
PKN1 | 1 | 106 | inactive
PKN1 | 2 | 90.1 | inactive
PKN1 | 2 | 39.6 | active
PKN1 | 2 | 98.2 | inactive
PKN1 | 3 | 110 | inactive
PKN1 | 3 | 51.9 | active
PKN1 | 3 | 83.7 | inactive

Quoted from the entries so far, 9 entries:
gene | technical replicate | viability, normalised (%) | outcome
OGG1 | 3 | 68.9 | active
RAB32 | 1 | 122 | inactive
RAB32 | 2 | 101 | inactive
RAB32 | 3 | 89.5 | inactive
PRMT9 | 1 | 32.1 | active
PRMT9 | 2 | 34 | active
PRMT9 | 3 | 35.9 | active
PFKL | 1 | 89.8 | inactive
PFKL | 2 | 122 | inactive

The results go on:
gene | technical replicate | viability, normalised (%) | outcome
PMS1 | 1 | 82.2 | inactive
PMS1 | 2 | 84.7 | inactive
PMS1 | 3 | 67.6 | active
MAP3K6 | 1 | 124 | inactive
MAP3K6 | 2 | 134 | inactive
MAP3K6 | 3 | 119 | inactive
RECQL5 | 1 | 176 | inactive
RECQL5 | 1 | 51.1 | active
RECQL5 | 2 | 177 | inactive
RECQL5 | 2 | 52.4 | active
RECQL5 | 3 | 153 | inactive
RECQL5 | 3 | 49 | active
MYO3A | 1 | 101 | inactive
MYO3A | 2 | 90.7 | inactive
MYO3A | 3 | 71.4 | active
MSH5 | 1 | 108 | inactive
MSH5 | 2 | 106 | inactive
MSH5 | 3 | 90.3 | inactive
RFC4 | 1 | 69.8 | active
RFC4 | 2 | 75.4 | active
RFC4 | 3 | 61 | active
NDRG1 | 1 | 69.4 | active
NDRG1 | 2 | 52.9 | active
NDRG1 | 3 | 70 | active
CACNA1A | 1 | 81.3 | inactive
CACNA1A | 2 | 56.5 | active
CACNA1A | 3 | 75.9 | active
